Results taken from paper PMC4858180.
Results are given in words; binding and its absence hold for the method and conditions named. In cells and extracts the contact can be indirect. Some entries that bind do so weakly or less than the wild type. Tags and fused reporters may be left off the sequences shown.

Protein sequences, listed by entry. Tags and fused reporters are not part of them. Residues count along the entry.
UniProt Q8K4G1, residues 25-1666: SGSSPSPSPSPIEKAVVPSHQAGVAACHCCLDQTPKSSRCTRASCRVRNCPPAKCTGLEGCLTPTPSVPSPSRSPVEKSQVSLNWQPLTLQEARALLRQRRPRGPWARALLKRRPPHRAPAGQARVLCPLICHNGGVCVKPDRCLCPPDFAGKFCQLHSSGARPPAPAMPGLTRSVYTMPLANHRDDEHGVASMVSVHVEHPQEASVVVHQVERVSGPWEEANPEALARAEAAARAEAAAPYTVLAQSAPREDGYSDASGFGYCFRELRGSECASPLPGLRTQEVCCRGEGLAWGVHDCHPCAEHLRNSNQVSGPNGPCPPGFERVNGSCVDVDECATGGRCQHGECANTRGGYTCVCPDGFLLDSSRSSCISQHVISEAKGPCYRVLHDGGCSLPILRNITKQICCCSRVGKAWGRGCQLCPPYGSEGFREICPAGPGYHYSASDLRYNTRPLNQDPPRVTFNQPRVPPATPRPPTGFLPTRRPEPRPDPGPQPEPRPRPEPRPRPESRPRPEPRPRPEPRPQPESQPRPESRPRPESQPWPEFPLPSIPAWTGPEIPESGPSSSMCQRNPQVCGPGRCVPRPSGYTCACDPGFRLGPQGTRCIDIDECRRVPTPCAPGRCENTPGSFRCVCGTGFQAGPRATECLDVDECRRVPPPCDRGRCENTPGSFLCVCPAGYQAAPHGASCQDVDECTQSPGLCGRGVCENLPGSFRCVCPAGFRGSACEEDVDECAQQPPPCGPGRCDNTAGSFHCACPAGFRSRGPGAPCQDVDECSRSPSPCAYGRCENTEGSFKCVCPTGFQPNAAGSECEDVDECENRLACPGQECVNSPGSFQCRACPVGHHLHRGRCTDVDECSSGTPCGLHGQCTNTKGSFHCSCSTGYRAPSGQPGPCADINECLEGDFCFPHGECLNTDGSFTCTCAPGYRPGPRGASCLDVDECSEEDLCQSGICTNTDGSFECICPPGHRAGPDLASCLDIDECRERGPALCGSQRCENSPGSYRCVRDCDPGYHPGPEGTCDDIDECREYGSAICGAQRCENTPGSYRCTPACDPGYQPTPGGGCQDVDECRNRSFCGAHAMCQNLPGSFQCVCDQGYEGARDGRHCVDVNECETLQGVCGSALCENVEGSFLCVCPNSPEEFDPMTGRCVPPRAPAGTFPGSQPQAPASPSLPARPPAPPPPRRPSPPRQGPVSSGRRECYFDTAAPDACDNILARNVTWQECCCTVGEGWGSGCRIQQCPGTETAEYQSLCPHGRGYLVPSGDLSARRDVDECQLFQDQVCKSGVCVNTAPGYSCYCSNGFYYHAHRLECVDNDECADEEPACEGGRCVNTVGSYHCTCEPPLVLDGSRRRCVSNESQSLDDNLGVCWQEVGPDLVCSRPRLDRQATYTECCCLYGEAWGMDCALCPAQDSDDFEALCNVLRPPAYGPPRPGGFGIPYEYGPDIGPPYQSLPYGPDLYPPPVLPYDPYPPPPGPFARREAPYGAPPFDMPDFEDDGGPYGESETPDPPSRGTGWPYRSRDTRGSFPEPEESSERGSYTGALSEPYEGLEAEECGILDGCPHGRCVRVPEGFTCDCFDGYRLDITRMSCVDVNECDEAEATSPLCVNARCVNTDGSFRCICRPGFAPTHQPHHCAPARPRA
UniProt P04202, residues 30-390: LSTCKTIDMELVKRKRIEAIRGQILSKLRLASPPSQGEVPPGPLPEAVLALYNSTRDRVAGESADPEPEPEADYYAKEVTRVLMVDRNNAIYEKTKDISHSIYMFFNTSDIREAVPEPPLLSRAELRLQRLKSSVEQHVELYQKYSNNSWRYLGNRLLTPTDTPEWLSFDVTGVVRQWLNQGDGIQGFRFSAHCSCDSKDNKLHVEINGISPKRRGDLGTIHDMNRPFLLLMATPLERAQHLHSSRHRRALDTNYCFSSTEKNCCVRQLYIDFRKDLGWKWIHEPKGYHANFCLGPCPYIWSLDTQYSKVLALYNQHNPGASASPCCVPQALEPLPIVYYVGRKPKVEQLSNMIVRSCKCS

B1: mouse TGFβ2, myc-DDK tagged (protein, UniProt P27090 21-414)
chain: LSTCSTLDMDQFMRKRIEAIRGQILSKLKLTSPPEDYPEPDEVPPEVISIYNSTRDLLQEKASRRAAACERERSDEEYYAKEVYKIDMPSHLPSENAIPPTFYRPYFRIVRFDVSTMEKNASNLVKAEFRVFRLQNPKARVAEQRIELYQILKSKDLTSPTQRYIDSKVVKTRAEGEWLSFDVTDAVQEWLHHKDRNLGFKISLHCPCCTFVPSNNYIIPNKSEELEARFAGIDGTSTYASGDQKTIKSTRKKTSGKTPHLLLMLLPSYRLESQQSSRRKKRALDAAYCFRNVQDNCCLRPLYIDFKRDLGWKWIHEPKGYNANFCAGACPYLWSSDTQHTKVLSLYNTINPEASASPCCVSQDLEPLTILYYIGNTPKIEQLSNMIVKSCKCS
B2: mouse TGFβ3, myc-DDK tagged (protein, UniProt P17125 24-410)
chain: TCTTLDFGHIKKKRVEAIRGQILSKLRLTSPPEPSVMTHVPYQVLALYNSTRELLEEMHGEREEGCTQETSESEYYAKEIHKFDMIQGLAEHNELAVCPKGITSKVFRFNVSSVEKNGTNLFRAEFRVLRVPNPSSKRTEQRIELFQILRPDEHIAKQRYIGGKNLPTRGTAEWLSFDVTDTVREWLLRRESNLGLEISIHCPCHTFQPNGDILENVHEVMEIKFKGVDNEDDHGRGDLGRLKKQKDHHNPHLILMMIPPHRLDSPGQGSQRKKRALDTNYCFRNLEENCCVRPLYIDFRQDLGWKWVHEPKGYYANFCSGPCPYLRSADTTHSTVLGLYNTLNPEASASPCCVPQDLEPLTILYYVGRTPKVEQLSNMVVKSCKCS

The molecules below were run against mouse LTBP4-L (long isoform) with carboxy-terminal Xpress tag, expressed in HEK293T (mouse) (UniProt Q8K4G1) (assay: co-IP; lysates of co-transfected HEK293T cells (150 mM NaCl, 50 mM Tris HCl pH 8, 0.1% Triton X-100), 500 μg lysate; immunoprecipitated with anti-LTBP4 antibody, immunoblotted with anti-myc; control without precipitating antibody; 4°C).

Molecule | binding
mouse TGFβ1, myc-DDK tagged (from UniProt P04202 30-390) | binds
B1 | binds
B2 | binds
